Screening data

From PubChem BioAssay record AID1963582 (Tox21, 2024).

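Potency is fitted from the concentration series in HCT-116 p53 reporter cells, read as a beta-lactamase fluorescence ratio at 16 h. The concentration series mostly goes up to 66 µM. Potency is the fitted concentration that gives half the maximal activation; a lower value means a more potent compound. Calls are based on the whole dose curve, and inconclusive means weak or mixed curves.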

Values are in µM. All entries here are filed as inconclusive. These entries are mostly ones the record files as inconclusive; other results of the assay are not listed here. Potencies fitted to partial, single-point or poorly fitting curves are rough. Some entries filed as inconclusive have a full curve. The first word of each remark tells which way the curve ran; it can be opposite to the aim of the assay.

* Nc1ccc(Oc2cccc(Oc3ccc(N)cc3)c2)cc1 | potency 14.47 µM (rising, full curve, poor fit)
* CCOP(=S)(NC(C)C)Oc1ccccc1C(=O)OC(C)C (configuration not stated) | potency 11.49 µM (fluorescent, full curve)
* Nc1ccc(-c2ccc(N)c(Cl)c2)cc1Cl | potency 16.32 µM (activator, partial curve)
* CO[C@H]1C=CO[C@@]2(C)Oc3c(C)c(O)c4c(O)c(c5c(c4c3C2=O)=NC2(CCN(CC(C)C)CC2)N=5)NC(=O)/C(C)=C\C=C/[C@H](C)[C@H](O)[C@@H](C)[C@@H](O)[C@@H](C)[C@H](OC(C)=O)[C@@H]1C | potency 39.9 µM
* CCCCCCCCCCCCN(CCO)CCO | potency 51.13 µM
* Cc1c(C(=O)NN2CCCCC2)nn(-c2ccc(Cl)cc2Cl)c1-c1ccc(Cl)cc1 | potency 5.614 µM (rising, partial curve, poor fit)
* C[CH2][Hg][N]1C(=O)C2C(C1=O)C1(Cl)C(Cl)=C(Cl)C2(Cl)C1(Cl)Cl (configuration not stated) | potency 6.136 µM (activator, single point)
* Fc1ccc(Oc2ccnc3cc(Cl)cc(Cl)c23)cc1 | potency 16.23 µM (fluorescent, full curve)
* CN1CCc2cccc3c2[C@H]1Cc1ccc(O)c(O)c1-3 | potency 14.63 µM (rising, partial curve)
* COc1cc2ncnc(Nc3ccc(F)c(Cl)c3)c2cc1OCCCN1CCOCC1 | potency 22.35 µM (rising, single point)
* Cc1c(C)c2c(c(C)c1O)CCC(C)(COc1ccc(CC3SC(=O)NC3=O)cc1)O2 (configuration not stated) | potency 6.299 µM (rising, partial curve)
* CNCCCC12CCC(c3ccccc31)c1ccccc12 | potency 45.75 µM (rising, partial curve)
* CCCCC1C(=O)N(c2ccccc2)N(c2ccc(O)cc2)C1=O (configuration not stated) | potency 19.92 µM (rising, partial curve)
* COCC(=O)O[C@]1(CCN(C)CCCc2nc3ccccc3[nH]2)CCc2cc(F)ccc2[C@@H]1C(C)C | potency 8.897 µM (rising, partial curve, poor fit)
* CCCCCCCCCCCCCCCCCC[N+](C)(C)C | potency 51.51 µM (single point)
* Oc1c(Cl)c(Cl)c(Cl)c(Cl)c1Cl | potency 12.9 µM (activator, partial curve, poor fit)
* Clc1ccccc1C(c1ccccc1)(c1ccccc1)n1ccnc1 | potency 51.34 µM (falling, single point)
* Cc1cc(C2(c3cc(C)c(O)cc3C)OS(=O)(=O)c3ccccc32)c(C)cc1O | potency 28.88 µM (rising, partial curve)
* [Cl][In]([Cl])[Cl] | potency 9.67 µM
* Cc1cc2c(cc1C(F)(F)F)N(C(=O)Nc1ccc(Oc3cccnc3C)nc1)CC2 | potency 8.26 µM (rising, full curve)
* N#Cc1ccc(C/C(=N/NC(=O)Nc2ccc(OC(F)(F)F)cc2)c2cccc(C(F)(F)F)c2)cc1 | potency 16.23 µM (rising, partial curve)
* CCc1nn(C)c(C(=O)NCc2ccc(C(C)(C)C)cc2)c1Cl | potency 0.0814 µM (rising, full curve)

Some entries from above, unchanged:

{"compound": "Nc1ccc(Oc2cccc(Oc3ccc(N)cc3)c2)cc1", "potency (µM)": "14.47", "curve": "rising, full curve, poor fit"}
{"compound": "Cc1cc2c(cc1C(F)(F)F)N(C(=O)Nc1ccc(Oc3cccnc3C)nc1)CC2", "potency (µM)": "8.26", "curve": "rising, full curve"}